# Results from one PubChem assay

Source: PubChem BioAssay AID912 (NCATS, 2007).

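A cell-based FRET test of anthrax lethal toxin entry, tracked through the 460 nm emission signal; the cell line is not named here.
Each compound was tested as a concentration series from about 0.0005 to 40 µM.
The number is the fitted AC50 of the 460 nm signal alone; lower values mean a more potent effect. A falling signal goes with compounds filed as inhibitors or cytotoxic, a rising one with activators or fluorescent compounds (inferred from the filed classes).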

Values are in µM.
Common to all entries: measured here: 460 nm channel.
Part of the compounds only, not a random draw; the main read-out is not listed here.
A potency from a partial, single-point or poor curve is only a rough figure.
The first word of each remark tells which way the curve ran; it can be opposite to the aim of the assay.

Cc1ccc(N2C(=O)c3ccccc3C2Nc2ccccc2F)nc1 (stereo unspecified) gave AC50 12.59 µM (falling, single point). For C[C@]12C/C(=C/O)C(=O)C[C@@H]1CC[C@@H]1[C@@H]2CC[C@@]2(C)[C@H]1CC[C@]2(C)O the result was AC50 2.512 µM (rising, full curve). With CCCCn1c(NC(=O)c2ccc(F)cc2)c(C#N)c2nc3ccccc3nc21 the assay gave AC50 15.85 µM (rising, partial curve). For S=C([S-])NCCNC(=S)[S-].[Zn+2] the result was AC50 31.62 µM (falling, single point). COc1ccccc1OCCC(=O)OCCN1C(=O)c2ccccc2C1=O read AC50 2.512 µM (falling, partial curve).

O=C1OCCC1Sc1nnc(-c2cccs2)n1Cc1ccccc1 (stereo unspecified) read AC50 10 µM (rising, single point). For Cc1cccc(Nc2nc(N)nc(CN3CCN(C)CC3)n2)c1 the result was AC50 5.012 µM (falling, partial curve). With CCOC(=O)CCc1c(C)c2ccc(OCC(=O)OC(C)C)cc2oc1=O the assay gave AC50 12.59 µM (rising, single point). Result for O=C(CCCSc1nc(-c2ccco2)cc(C(F)(F)F)n1)Nc1ccc2c(c1)OCO2 was AC50 0.01259 µM (falling, full curve, poor fit). COC(=O)C[C@](O)(CCCC(C)(C)O)C(=O)O[C@@H]1C(OC)=C[C@]23CCCN2CCc2cc4c(cc2[C@H]13)OCO4 gave AC50 0.00631 µM (falling, full curve).

CN1CCN(c2ncnc3ccc(-c4ccccc4Cl)cc23)CC1 read AC50 12.59 µM (falling, single point). O=S1(=O)N[C@H]2CC[C@@H]3NS(=O)(=O)N[C@H]4CC[C@H](N1)N4S(=O)(=O)N23 read AC50 0.631 µM (rising, single point). With CCOC(=O)c1ccoc1CSCC(=O)N1CCN(S(=O)(=O)c2ccc(C)cc2)CC1 the assay gave AC50 15.85 µM (rising, partial curve). O=C(NCCN1CCCC1)c1ccc(Cn2c(=S)[nH]c3cc4c(cc3c2=O)OCO4)cc1 gave AC50 1 µM (rising, full curve). For COc1ccc(C2=NO[C@@H]3C(=O)N(c4c(C)cccc4C)C(=O)[C@H]23)cc1OC the result was AC50 0.02512 µM (falling, full curve, poor fit).

COc1ccc(Cl)cc1NC(=O)COc1cccc(-n2cnnn2)c1 gave AC50 0.01259 µM (falling, full curve, poor fit). CCCCCCCC/C=C\CCCCCCCC(=O)NCCO read AC50 25.12 µM (falling, partial curve, poor fit). For Cc1ccc(S(=O)(=O)N2CCCC2C(=O)OCc2ccco2)cc1 (stereo unspecified) the result was AC50 7.943 µM (rising, partial curve). Cn1c(=O)c2c(ncn2Cc2ccc(Cl)c(Cl)c2)n(C)c1=O gave AC50 0.05012 µM (rising, partial curve). CCn1c(SCC(=O)Nc2nc(-c3ccc(C)cc3)cs2)nnc1-c1ccccc1O gave AC50 12.59 µM (falling, single point).

O=S(=O)(c1ccccc1)N1CCC2(CC1)CN(c1ccccn1)C2 gave AC50 5.012 µM (rising, single point). COc1cccc(Nc2ncc3nc(-c4ccccc4)c(=O)n(C)c3n2)c1 read AC50 10 µM (rising, partial curve). CCCn1c2c(c(O)c(C(=O)Nc3nccs3)c1=O)CCCC2 read AC50 19.95 µM (falling, single point). With NC1=CC(=O)c2cccc3cccc1c23 the assay gave AC50 10 µM (falling, partial curve). Result for Cc1nn(-c2ccc(C(=O)O)cc2)c(N)c1-c1ccccc1 was AC50 1.995 µM (falling, partial curve).

COc1ccc(-n2c(=O)c(-c3cccs3)nc3cnc(N4CCOCC4)nc32)cc1 read AC50 3.162 µM (rising, full curve). With CNC(=O)c1cc2c(=O)n3cccc(C)c3nc2n(C(C)C)c1=N the assay gave AC50 10 µM (rising, partial curve). O=c1c(-c2cccs2)nc2cnc(N3CCOCC3)nc2n1-c1ccccc1 read AC50 10 µM (rising, partial curve). For COCCNC(=O)[C@H](C)[C@H]1C[C@]1(C)[C@H](NC(=O)OCc1ccccc1)c1ccccc1 the result was AC50 5.012 µM (falling, full curve). With O=c1c2c(n3nnnc3n1Cc1ccccc1)-c1ccccc1CC21CCCC1 the assay gave AC50 5.012 µM (rising, partial curve, poor fit).

Oc1c(Br)cc(Br)cc1CN(Cc1cc(Br)cc(Br)c1O)C1CCCCC1 read AC50 3.162 µM (falling, single point). Result for CCOC(=O)c1nc(C)[nH]c1C(=O)OCC was AC50 31.62 µM (falling, single point). CCS(=O)(=O)N1CCN(c2ccccc2F)CC1 read AC50 25.12 µM (rising, single point).

Some entries from above, unchanged:

- CCCCn1c(NC(=O)c2ccc(F)cc2)c(C#N)c2nc3ccccc3nc21 | AC50 15.85 µM (rising, partial curve)
- CCn1c(SCC(=O)Nc2nc(-c3ccc(C)cc3)cs2)nnc1-c1ccccc1O | AC50 12.59 µM (falling, single point)
- COc1ccc(Cl)cc1NC(=O)COc1cccc(-n2cnnn2)c1 | AC50 0.01259 µM (falling, full curve, poor fit)
- Cn1c(=O)c2c(ncn2Cc2ccc(Cl)c(Cl)c2)n(C)c1=O | AC50 0.05012 µM (rising, partial curve)